Measurements reported in PubChem BioAssay AID743454 (Peter MacCallum Cancer Centre, 2014)
This is a random part of about 18,000 deposited reagents. Over the whole deposit, 450 (2.5%) are marked active. 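Single biological run; no consistent viability z cut-off exists, so the class columns, not z-scores, define the calls.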 Entries without a mark were called inactive. No sequences are given here.

Screen: 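Genes whose loss kills vorinostat-resistant colon cancer cells under vorinostat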 (primary screen)
Cell system: human HCT116-VR colon cancer cells, selected for vorinostat resistance
Reagents: siRNA pool against human genes, 40 nM siRNA pool
Duration: vorinostat for 24 h, read-out about 72 h after transfection
Conditions: vorinostat at 2.5 µM final
Read-out: 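Two measures, CellTiter-Fluor viability and luminescent caspase 3/7 activity, each as fold change against same-plate mock wells, mean of duplicates, then screen-wide robust z-score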
Reading the numbers: viability robust z-score: higher = more viable cells than screen typical; caspase robust z-score: higher = more caspase 3/7 activity than screen typical
Call rule: 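Hits are knock-downs in viability class RV1/RV2 or caspase class CA1/CA2, excluding ones that killed cells in the no-drug cell-count arm; hits then retested with single siRNAs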

| gene | viability hit class | caspase hit class | viability robust z-score | caspase robust z-score |
| --- | --- | --- | --- | --- |
| KTN1 | no change | no change | -4.97 | 2.04 |
| TESK2 | no change | no change | 0.66 | -0.94 |
| ZNF439 | no change | no change | -0.76 | -1.03 |
| BCR | no change | no change | -2.16 | 1.82 |
| EVPL | no change | no change | 0.11 | -0.88 |
| IL36A | no change | no change | -0.41 | 0.49 |
| ICAM1 | no change | no change | -1.71 | 4.52 |
| ZNF322 | no change | no change | -2.07 | 4.73 |
| MOB1A | no change | no change | -0.37 | 1.53 |
| CHN1 | no change | no change | -0.1 | -0.94 |
| COLEC12 | no change | no change | 0.05 | -0.52 |
| NWD1 | no change | no change | -1.18 | -0.91 |
| LANCL3 | no change | no change | 1.27 | -0.32 |
| OTX2 | no change | no change | 0.2 | -0.62 |
| PLPPR4 | no change | no change | 0.67 | 0.12 |
| ADIRF | no change | no change | -2.2 | 4.39 |
| SRPX2 | no change | no change | 0.12 | -0.88 |
| OSR1 | no change | no change | 1.52 | -0.05 |
| RSL1D1 | no change | no change | -1.39 | 1.24 |
| ABHD14A | no change | no change | -0.11 | 0.68 |
| NHERF2 | no change | no change | 0.1 | 1.5 |
| CKAP4 | no change | no change | 0.14 | 0.77 |
| HMHB1 | no change | no change | -0.32 | -1.55 |
| C3orf36 | no change | no change | -0.84 | 1.48 |
| SCOC | no change | no change | 0.23 | -0.45 |
| MND1 | no change | no change | 0.03 | -1.13 |
| THG1L | no change | no change | 0.39 | -0.74 |
| KCNA3 | no change | no change | -0.78 | 3.49 |
| C5orf24 | no change | no change | 0.92 | 0.18 |
| BIRC5 | no change | no change | -2.6 | 0.06 |
| RADIL | no change | no change | 0.75 | -0.14 |
| TMBIM4 | no change | no change | -0.24 | 0.01 |
| RNF13 | no change | no change | -0.37 | 1.02 |
| CBX5 | no change | no change | -1.47 | -0.56 |
| ZNF791 | no change | no change | -0.68 | 0.7 |
| GUCY2EP | no change | no change | 0.82 | -0.24 |
| GLIS1 | no change | no change | 1.09 | -0.78 |
| PEG3 | no change | no change | 0.25 | -0.43 |
| PCDH7 | no change | no change | -0.84 | -0.6 |
| JPT2 | no change | no change | 0.44 | -0.5 |
| TAF5 | no change | no change | -1.82 | 0.12 |
| ZFX | no change | no change | -0.55 | -1.35 |
| BHMT | no change | no change | -0.6 | -0.02 |
| CBS | no change | no change | 1.29 | -0.44 |
| F9 | no change | no change | 1.36 | -0.4 |
| PPP4R1 | no change | no change | 2.05 | 1.04 |
| UBE2V2 | no change | no change | -0.47 | 2.5 |
| ADGRF3 | no change | no change | -0.82 | 2.42 |
| C9orf50 | no change | no change | 1.14 | 2.8 |
| CDIP1 | no change | no change | -0.57 | -0.44 |
| RMND5B | no change | no change | -0.36 | 0.45 |
| KIF13B | no change | no change | -0.15 | -0.88 |
| ZNF385B | no change | no change | -0.22 | -0.39 |
| DOK3 | no change | no change | 0.5 | -0.4 |
| TRIM35 | no change | no change | -0.9 | 0.54 |
| PLXNB3 | no change | no change | -0.26 | -0.22 |
| CYP4F8 | no change | no change | 0.69 | 0.36 |
| TNFRSF10C | no change | no change | -0.96 | -0.58 |
| LINC01465 | no change | no change | 0.22 | 2.9 |
| BPY2B | no change | no change | 1.32 | 3.88 |
| PALS2 | no change | no change | 0.82 | -0.76 |
| RASSF4 | no change | no change | -1.8 | 2.86 |
| HMGCS1 | no change | no change | 1.68 | 1.06 |
| NCKIPSD | no change | no change | 0.15 | -0.77 |
| BDKRB1 | no change | no change | 0.78 | -0.32 |
| LRRC4B | no change | no change | 1.45 | 2.06 |
| GSTO1 | no change | no change | -1.33 | -0.7 |
| DSCC1 | no change | no change | 0.36 | -0.7 |
| XKR4 | no change | no change | 0.68 | -0.18 |
| CLRN3 | no change | no change | -0.36 | -0.18 |
| SPACA5 | no change | no change | 0.28 | -0.38 |
| LINC01599 | no change | no change | -0.18 | -0.56 |
| MCCD1 | no change | no change | 0.36 | -0.16 |

Entries listed so far whose gene name starts with K or k:
| gene | viability hit class | caspase hit class | viability robust z-score | caspase robust z-score |
| --- | --- | --- | --- | --- |
| KTN1 | no change | no change | -4.97 | 2.04 |
| KCNA3 | no change | no change | -0.78 | 3.49 |
| KIF13B | no change | no change | -0.15 | -0.88 |
